PubChem BioAssay AID1259425, University of Nebraska Medical Center | 2018

- Assay: 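Compare each knockdown with KSR1 silencing using changes in marker transcripts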 (primary screen)
- Cells: HCT116 human colon cancer cells
- Knock-down reagent: siRNA pool against human genes, 50 nM siRNA
- Measurement: 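mRNA of six signature genes measured together by branched-DNA assay after 50 nM siRNA pool, blank removed, divided by geometric mean of two housekeeping genes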
- Direction: BNIP3L mRNA: higher = more BNIP3L transcript after knockdown; NDRG1 mRNA: higher = more NDRG1 transcript after knockdown; BNIP3 mRNA: higher = more BNIP3 transcript after knockdown
Shown is one part, drawn at random, of about 14,000 reagents. Further read-outs or replicates are left out here. Not given: the time to read-out.

Target gene | BNIP3L mRNA, set 1 | NDRG1 mRNA, set 1 | BNIP3 mRNA, set 1
MTERF1 | 0.173 | 0.486 | 0.343
ECM1 | 0.0382 | 0.109 | 0.238
BTG4 | 0.203 | 0.424 | 0.349
GNL3 | 0.101 | 0.625 | 0.783
KDM8 | 0.149 | 0.266 | 0.288
UEVLD | 0.168 | 0.159 | 0.555
BTNL2 | 0.124 | 0.382 | 0.226
CIT | 0.14 | 0.0941 | 0.383
H19 | 0.117 | 0.191 | 0.235
DNAJC12 | 0.13 | 0.46 | 0.352
SKP1 | 0.0456 | 0.164 | 0.213
IPO7 | 0.133 | 0.267 | 0.29
NLRP8 | 0.126 | 0.145 | 0.362
OPTC | 0.0703 | 0.294 | 0.498
ZER1 | 0.11 | 0.319 | 0.286
PCDHGA2 | 0.0634 | 0.135 | 0.262
EPN3 | 0.0995 | 0.239 | 0.247
PNP | 0.387 | 0.332 | 0.358
MOCS3 | 0.184 | 0.398 | 0.257
MRC1 | 0.0866 | 0.146 | 0.144

Targets above whose gene name begins with P or p (2):
Target gene | BNIP3L mRNA, set 1 | NDRG1 mRNA, set 1 | BNIP3 mRNA, set 1
PCDHGA2 | 0.0634 | 0.135 | 0.262
PNP | 0.387 | 0.332 | 0.358
